Some of the results follow.
What was measured:
Test in all cases: glycan array binding signal (z-score within array); higher = stronger binding
Settings in all cases: glycan notation: IUPAC condensed, linker removed
[1] = biological target: GalNAc(b1-4)GlcNAc(b1-2)Man
Method in brief: (§1)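 Glycan array binding is given as a within-array Z-score, which can be read as non-binding when negative. The arrays, 3228 of them, came from the Consortium for Functional Glycomics database and were retained only where the protein sequence was available. Z-scores were averaged across arrays of the same protein sequence at different concentrations or buffers and across linkers.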

[2] = biological target: GalNAc(b1-4)GlcNAc(b1-2)Man(a1-3)[GalNAc(b1-4)GlcNAc(b1-2)Man(a1-6)]Man(b1-4)GlcNAc(b1-4)GlcNAc
Method in brief: as §1

[3] = biological target: GalNAc(b1-4)GlcNAc(b1-3)GalNAc(b1-4)GlcNAc
Method in brief: as §1

[4] = biological target: GalNAc(b1-4)GlcNAc6S
Method in brief: as §1

[5] = biological target: GalNAc(b1-6)GalNAc
Method in brief: as §1

[6] = biological target: GalNAc3S(b1-4)GlcNAc
Method in brief: as §1

[7] = biological target: GalNAc3S(b1-4)GlcNAc3S
Method in brief: as §1

[8] = biological target: GalNAc3S(b1-4)[Fuc(a1-3)]GlcNAc
Method in brief: as §1

[9] = biological target: GalNAc4S6S(b1-4)GlcNAc
Method in brief: as §1

[10] = biological target: GalNAc6S(b1-4)GlcNAc
Method in brief: as §1

[11] = biological target: Glc(a1-4)Glc
Method in brief: as §1

[12] = biological target: Glc(a1-4)Glc(a1-4)Glc(a1-4)Glc
Method in brief: as §1

[13] = biological target: Glc(a1-6)Glc(a1-6)Glc
Method in brief: as §1

[14] = biological target: Glc(a1-6)Glc(a1-6)Glc(a1-6)Glc
Method in brief: as §1

[15] = biological target: Glc(b1-4)Glc
Method in brief: as §1

[16] = biological target: Glc(b1-6)Glc
Method in brief: as §1

[17] = biological target: GlcA(b1-3)Gal
Method in brief: as §1

[18] = biological target: GlcA(b1-3)GlcNAc
Method in brief: as §1

[19] = biological target: GlcA(b1-6)Gal
Method in brief: as §1

[20] = biological target: GlcA3S(b1-3)Gal(b1-4)GlcNAc(b1-2)Man
Method in brief: as §1

[21] = biological target: GlcA3S(b1-3)Gal(b1-4)GlcNAc(b1-3)Gal(b1-4)Glc
Method in brief: as §1

[22] = biological target: GlcNAc(a1-3)Gal(b1-4)GlcNAc
Method in brief: as §1

[23] = biological target: GlcNAc(a1-4)Gal(b1-3)GlcNAc
Method in brief: as §1

[24] = biological target: GlcNAc(a1-4)Gal(b1-4)GalNAc
Method in brief: as §1

[25] = biological target: GlcNAc(a1-4)Gal(b1-4)GlcNAc
Method in brief: as §1

[26] = biological target: GlcNAc(a1-4)Gal(b1-4)GlcNAc(b1-3)Gal(b1-4)Glc
Method in brief: as §1

[27] = biological target: GlcNAc(a1-4)Gal(b1-4)GlcNAc(b1-3)Gal(b1-4)GlcNAc
Method in brief: as §1

[28] = biological target: GlcNAc(a1-4)Gal(b1-4)GlcNAc(b1-3)Gal(b1-4)GlcNAc(b1-3)Gal(b1-4)GlcNAc
Method in brief: as §1

[29] = biological target: GlcNAc(a1-4)Gal(b1-4)GlcNAc(b1-3)Gal(b1-4)[Fuc(a1-3)]GlcNAc(b1-3)Gal(b1-4)[Fuc(a1-3)]GlcNAc
Method in brief: as §1

[30] = biological target: GlcNAc(a1-6)Gal(b1-4)GlcNAc
Method in brief: as §1

[31] = biological target: GlcNAc(b1-2)Gal(b1-3)GalNAc
Method in brief: as §1

[32] = biological target: GlcNAc(b1-2)Man(a1-3)[GlcNAc(b1-2)Man(a1-6)]Man(b1-4)GlcNAc(b1-4)GlcNAc
Method in brief: as §1

[33] = biological target: GlcNAc(b1-2)Man(a1-3)[GlcNAc(b1-2)Man(a1-6)]Man(b1-4)GlcNAc(b1-4)[Fuc(a1-6)]GlcNAc
Method in brief: as §1

[34] = biological target: GlcNAc(b1-2)Man(a1-3)[GlcNAc(b1-4)][GlcNAc(b1-2)Man(a1-6)]Man(b1-4)GlcNAc(b1-4)GlcNAc
Method in brief: as §1

[35] = biological target: GlcNAc(b1-2)Man(a1-3)[GlcNAc(b1-4)][GlcNAc(b1-2)Man(a1-6)]Man(b1-4)GlcNAc(b1-4)[Fuc(a1-6)]GlcNAc
Method in brief: as §1

[36] = biological target: GlcNAc(b1-2)[GlcNAc(b1-4)]Man(a1-3)[GlcNAc(b1-2)Man(a1-6)]Man(b1-4)GlcNAc(b1-4)GlcNAc
Method in brief: as §1

[37] = biological target: GlcNAc(b1-2)[GlcNAc(b1-4)]Man(a1-3)[GlcNAc(b1-4)][GlcNAc(b1-2)Man(a1-6)]Man(b1-4)GlcNAc(b1-4)GlcNAc
Method in brief: as §1

B1: Vd7LysM (Verticillium dahliae) (protein)
chain: RRGPEPKYPPAAGTSSYCSYWVDYEGDKSCSRVLEDNVVVLKDFARWNPTVGADCSGIKAGNSYCVEAFGEPEPIEVTTTTRAATTTTQPTATTTTFANGIATPQPTQSGMVTNCNKFHWIAEGVSCSQVISFQKITLADFVKWNPSVKSDCSGMWAGVNVCVGVVGSSTDTAKPTTTAPSNGVVTPQPTQPSMVTNCNKFHWIAKGVTCQQVISYQKISLADFVKWNPSVLSDCSGMWAEVQVCVGVIGSTPTTLATTTTTAGNGVSTPLPTQPGMVTNCAKFHWVAKGVTCNQIYSFQKITLEQFVSYNPTVKSDCSGMQAEVQVCVGLIAGTTPTTTRPPTTTAPGNGVSTPQPTQPGMVTNCAKFHWVAKGVTCNQIYSFQKITLEQFVSFNPTVKSDCTGMQAEVNVCVGLIGGNPTPTQTGNGIATPTPIQPGMVSNCKKFHWIAQGVTCQQVISFQKITLADFVKWNTGVGSDCRTMWAETNVCVGV
Which results are given for B1?
glycan array binding signal (z-score) [1]: -0.164; glycan array binding signal (z-score) [2]: -1.23; glycan array binding signal (z-score) [3]: -0.179; glycan array binding signal (z-score) [4]: 0.577; glycan array binding signal (z-score) [5]: 0.192; glycan array binding signal (z-score) [6]: 1.75; glycan array binding signal (z-score) [7]: 0.948; glycan array binding signal (z-score) [8]: 0.601; glycan array binding signal (z-score) [9]: -1.09; glycan array binding signal (z-score) [10]: 0.22; glycan array binding signal (z-score) [11]: 0.352; glycan array binding signal (z-score) [12]: 0.035; glycan array binding signal (z-score) [13]: -0.851; glycan array binding signal (z-score) [14]: -1.92; glycan array binding signal (z-score) [15]: 0.022; glycan array binding signal (z-score) [16]: -1.06; glycan array binding signal (z-score) [17]: -0.323; glycan array binding signal (z-score) [18]: -1.23; glycan array binding signal (z-score) [19]: -1.41; glycan array binding signal (z-score) [20]: -1.1; glycan array binding signal (z-score) [21]: -0.247; glycan array binding signal (z-score) [22]: 0.462; glycan array binding signal (z-score) [23]: -0.658; glycan array binding signal (z-score) [24]: 0.043; glycan array binding signal (z-score) [25]: 0.042; glycan array binding signal (z-score) [26]: -1.13; glycan array binding signal (z-score) [27]: 0.606; glycan array binding signal (z-score) [28]: -0.633; glycan array binding signal (z-score) [29]: 1.23; glycan array binding signal (z-score) [30]: -0.348; glycan array binding signal (z-score) [31]: 0.746; glycan array binding signal (z-score) [32]: -0.761; glycan array binding signal (z-score) [33]: 1; glycan array binding signal (z-score) [34]: -0.559; glycan array binding signal (z-score) [35]: -0.264; glycan array binding signal (z-score) [36]: -0.036; glycan array binding signal (z-score) [37]: -1.69

From the supplement of paper PMC8728848
